Laboratory results: the supplement of paper PMC10849652
This is one part of the list.

Chains of the proteins cited; added tags and fusions are not shown. Lines headed by an entry give the natural chain unless they say otherwise; changes in a name come on top.
UniProt Q96C90: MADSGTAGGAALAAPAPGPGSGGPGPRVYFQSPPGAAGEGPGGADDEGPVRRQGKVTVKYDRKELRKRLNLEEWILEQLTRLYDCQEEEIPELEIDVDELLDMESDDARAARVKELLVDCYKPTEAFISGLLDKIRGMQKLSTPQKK
UniProt P05771, whole entry, looked up: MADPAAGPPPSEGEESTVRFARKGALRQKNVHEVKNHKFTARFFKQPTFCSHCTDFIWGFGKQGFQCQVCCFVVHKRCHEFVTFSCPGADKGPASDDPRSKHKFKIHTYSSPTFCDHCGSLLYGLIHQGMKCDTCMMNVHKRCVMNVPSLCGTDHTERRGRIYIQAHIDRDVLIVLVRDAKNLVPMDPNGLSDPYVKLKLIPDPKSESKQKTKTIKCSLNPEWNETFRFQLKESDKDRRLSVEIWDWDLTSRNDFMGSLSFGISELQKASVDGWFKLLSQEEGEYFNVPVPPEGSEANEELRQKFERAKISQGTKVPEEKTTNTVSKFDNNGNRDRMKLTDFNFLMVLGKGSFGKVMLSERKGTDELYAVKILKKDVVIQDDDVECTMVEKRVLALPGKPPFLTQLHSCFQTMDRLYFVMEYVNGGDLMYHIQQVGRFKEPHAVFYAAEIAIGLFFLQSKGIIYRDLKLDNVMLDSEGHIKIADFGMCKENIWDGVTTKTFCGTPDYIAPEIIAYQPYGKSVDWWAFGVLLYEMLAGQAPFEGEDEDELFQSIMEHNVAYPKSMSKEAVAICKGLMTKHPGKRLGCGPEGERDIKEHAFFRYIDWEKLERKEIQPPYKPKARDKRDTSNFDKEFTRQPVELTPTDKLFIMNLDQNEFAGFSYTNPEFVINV
UniProt P78527, whole entry, looked up: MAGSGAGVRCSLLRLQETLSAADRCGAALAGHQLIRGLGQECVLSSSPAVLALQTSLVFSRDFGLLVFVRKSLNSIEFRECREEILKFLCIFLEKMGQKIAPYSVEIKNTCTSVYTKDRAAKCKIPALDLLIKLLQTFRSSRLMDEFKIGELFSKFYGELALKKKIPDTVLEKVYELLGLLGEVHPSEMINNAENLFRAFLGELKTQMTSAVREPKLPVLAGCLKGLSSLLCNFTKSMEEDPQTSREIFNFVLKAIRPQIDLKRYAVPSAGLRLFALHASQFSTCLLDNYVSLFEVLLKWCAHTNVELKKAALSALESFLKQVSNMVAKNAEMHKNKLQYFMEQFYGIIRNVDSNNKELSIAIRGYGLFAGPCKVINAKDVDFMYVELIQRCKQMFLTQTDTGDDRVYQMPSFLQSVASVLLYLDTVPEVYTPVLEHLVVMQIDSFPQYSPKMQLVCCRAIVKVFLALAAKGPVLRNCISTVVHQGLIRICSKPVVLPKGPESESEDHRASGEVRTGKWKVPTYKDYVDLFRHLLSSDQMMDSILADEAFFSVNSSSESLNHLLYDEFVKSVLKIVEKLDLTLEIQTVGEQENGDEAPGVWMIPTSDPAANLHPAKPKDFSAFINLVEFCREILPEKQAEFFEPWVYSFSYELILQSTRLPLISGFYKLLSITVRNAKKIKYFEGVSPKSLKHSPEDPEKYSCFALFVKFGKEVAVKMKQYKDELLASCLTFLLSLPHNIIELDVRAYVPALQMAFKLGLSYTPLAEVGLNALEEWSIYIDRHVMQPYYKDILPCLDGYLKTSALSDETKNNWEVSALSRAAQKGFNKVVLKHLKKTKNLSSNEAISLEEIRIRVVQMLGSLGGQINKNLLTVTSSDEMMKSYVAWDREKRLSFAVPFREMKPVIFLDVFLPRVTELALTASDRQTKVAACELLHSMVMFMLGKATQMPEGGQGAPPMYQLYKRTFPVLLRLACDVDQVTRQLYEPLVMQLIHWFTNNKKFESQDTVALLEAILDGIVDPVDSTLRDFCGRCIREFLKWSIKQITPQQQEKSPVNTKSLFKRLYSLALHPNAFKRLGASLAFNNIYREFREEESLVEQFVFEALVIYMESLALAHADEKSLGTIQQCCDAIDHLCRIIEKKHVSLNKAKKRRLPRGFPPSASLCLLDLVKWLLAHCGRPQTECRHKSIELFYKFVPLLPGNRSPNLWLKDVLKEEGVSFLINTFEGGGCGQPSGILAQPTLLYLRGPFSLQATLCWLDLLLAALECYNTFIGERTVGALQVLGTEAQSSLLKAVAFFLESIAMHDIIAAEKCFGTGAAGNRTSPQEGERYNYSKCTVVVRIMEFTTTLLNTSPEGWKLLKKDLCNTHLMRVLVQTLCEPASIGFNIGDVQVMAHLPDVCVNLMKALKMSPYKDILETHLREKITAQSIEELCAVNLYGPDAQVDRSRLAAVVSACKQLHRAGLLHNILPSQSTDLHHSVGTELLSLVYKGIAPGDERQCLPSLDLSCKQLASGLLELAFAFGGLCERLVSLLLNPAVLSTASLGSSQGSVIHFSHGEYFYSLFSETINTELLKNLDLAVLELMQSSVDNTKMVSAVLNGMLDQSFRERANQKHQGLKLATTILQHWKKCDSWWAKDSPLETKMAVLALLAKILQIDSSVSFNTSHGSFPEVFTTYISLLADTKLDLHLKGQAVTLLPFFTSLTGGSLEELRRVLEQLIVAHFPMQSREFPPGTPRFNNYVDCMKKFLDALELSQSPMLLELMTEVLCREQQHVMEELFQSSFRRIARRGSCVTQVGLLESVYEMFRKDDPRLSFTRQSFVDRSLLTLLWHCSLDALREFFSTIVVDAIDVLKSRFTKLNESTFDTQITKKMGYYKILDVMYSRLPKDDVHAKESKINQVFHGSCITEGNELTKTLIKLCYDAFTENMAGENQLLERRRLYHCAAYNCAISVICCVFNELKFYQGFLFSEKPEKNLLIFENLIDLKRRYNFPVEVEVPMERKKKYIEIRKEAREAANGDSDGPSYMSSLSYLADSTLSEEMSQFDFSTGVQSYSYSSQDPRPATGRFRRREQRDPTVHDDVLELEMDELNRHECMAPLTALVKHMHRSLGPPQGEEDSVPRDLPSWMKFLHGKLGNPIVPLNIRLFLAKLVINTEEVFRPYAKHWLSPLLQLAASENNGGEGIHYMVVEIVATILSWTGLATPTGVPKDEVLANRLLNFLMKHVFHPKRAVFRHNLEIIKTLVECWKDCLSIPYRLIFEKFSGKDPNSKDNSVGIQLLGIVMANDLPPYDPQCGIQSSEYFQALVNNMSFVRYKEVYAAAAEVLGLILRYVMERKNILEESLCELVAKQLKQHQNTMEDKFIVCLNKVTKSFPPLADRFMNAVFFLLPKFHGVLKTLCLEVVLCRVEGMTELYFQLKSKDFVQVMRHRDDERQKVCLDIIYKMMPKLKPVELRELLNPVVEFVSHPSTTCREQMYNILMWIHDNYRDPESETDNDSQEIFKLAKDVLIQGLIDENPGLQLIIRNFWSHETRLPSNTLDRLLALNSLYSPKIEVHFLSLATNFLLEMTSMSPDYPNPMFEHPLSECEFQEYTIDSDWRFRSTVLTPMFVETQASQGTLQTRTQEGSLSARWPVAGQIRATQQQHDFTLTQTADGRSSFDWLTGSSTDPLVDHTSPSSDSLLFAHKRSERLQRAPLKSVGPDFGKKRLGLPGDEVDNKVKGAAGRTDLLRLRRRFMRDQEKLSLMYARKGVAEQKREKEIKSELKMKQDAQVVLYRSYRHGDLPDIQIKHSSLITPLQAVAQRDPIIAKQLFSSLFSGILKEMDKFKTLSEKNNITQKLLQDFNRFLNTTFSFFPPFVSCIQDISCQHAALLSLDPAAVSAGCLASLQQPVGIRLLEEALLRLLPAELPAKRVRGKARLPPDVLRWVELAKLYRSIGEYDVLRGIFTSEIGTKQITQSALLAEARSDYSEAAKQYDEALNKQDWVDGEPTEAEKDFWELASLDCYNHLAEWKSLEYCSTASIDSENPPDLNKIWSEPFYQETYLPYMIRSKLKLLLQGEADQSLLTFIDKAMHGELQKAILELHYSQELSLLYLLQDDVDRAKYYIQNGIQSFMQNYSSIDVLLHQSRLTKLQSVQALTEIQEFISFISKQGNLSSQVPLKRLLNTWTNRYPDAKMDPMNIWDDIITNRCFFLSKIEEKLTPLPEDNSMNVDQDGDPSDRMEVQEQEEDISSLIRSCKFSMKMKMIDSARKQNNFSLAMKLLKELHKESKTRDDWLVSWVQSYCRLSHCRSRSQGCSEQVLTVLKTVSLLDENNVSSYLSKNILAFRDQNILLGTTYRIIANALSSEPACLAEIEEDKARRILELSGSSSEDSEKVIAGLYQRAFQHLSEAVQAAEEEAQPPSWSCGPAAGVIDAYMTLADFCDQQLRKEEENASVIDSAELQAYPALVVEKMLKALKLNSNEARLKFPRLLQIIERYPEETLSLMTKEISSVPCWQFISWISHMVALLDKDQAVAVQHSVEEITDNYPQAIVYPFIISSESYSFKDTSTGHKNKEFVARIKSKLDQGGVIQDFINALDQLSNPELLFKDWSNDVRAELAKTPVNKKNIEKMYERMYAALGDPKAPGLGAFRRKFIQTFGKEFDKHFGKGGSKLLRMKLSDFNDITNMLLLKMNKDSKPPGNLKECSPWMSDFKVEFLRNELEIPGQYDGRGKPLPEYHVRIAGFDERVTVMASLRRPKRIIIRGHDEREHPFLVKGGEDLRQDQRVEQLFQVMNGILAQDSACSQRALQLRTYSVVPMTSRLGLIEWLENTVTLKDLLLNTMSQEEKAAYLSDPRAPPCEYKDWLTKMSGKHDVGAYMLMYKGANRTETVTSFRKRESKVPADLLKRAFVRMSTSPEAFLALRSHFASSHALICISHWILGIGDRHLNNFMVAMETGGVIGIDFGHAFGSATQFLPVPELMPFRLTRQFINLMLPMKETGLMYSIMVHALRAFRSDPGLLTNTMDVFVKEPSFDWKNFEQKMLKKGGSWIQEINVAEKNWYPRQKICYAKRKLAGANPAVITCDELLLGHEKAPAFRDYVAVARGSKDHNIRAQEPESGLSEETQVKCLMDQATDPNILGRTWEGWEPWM
UniProt Q8TAP8: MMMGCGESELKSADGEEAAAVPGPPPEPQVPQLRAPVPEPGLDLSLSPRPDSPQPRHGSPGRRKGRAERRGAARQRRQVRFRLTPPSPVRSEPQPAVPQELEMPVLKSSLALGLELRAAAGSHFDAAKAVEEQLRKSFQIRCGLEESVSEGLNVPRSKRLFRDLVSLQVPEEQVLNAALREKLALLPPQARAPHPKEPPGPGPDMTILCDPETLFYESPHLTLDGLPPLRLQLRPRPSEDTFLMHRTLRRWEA
UniProt P13861, whole entry, looked up: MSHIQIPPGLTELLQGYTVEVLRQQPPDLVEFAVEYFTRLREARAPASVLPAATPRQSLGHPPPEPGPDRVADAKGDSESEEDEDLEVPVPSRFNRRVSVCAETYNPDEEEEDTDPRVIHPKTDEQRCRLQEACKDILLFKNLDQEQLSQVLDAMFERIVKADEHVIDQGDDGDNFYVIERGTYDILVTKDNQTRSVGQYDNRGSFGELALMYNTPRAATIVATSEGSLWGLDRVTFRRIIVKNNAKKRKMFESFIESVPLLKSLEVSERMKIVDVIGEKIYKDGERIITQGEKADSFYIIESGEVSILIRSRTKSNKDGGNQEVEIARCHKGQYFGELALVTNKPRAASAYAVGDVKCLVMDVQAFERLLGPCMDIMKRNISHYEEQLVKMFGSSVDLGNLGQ
UniProt Q9UNN8: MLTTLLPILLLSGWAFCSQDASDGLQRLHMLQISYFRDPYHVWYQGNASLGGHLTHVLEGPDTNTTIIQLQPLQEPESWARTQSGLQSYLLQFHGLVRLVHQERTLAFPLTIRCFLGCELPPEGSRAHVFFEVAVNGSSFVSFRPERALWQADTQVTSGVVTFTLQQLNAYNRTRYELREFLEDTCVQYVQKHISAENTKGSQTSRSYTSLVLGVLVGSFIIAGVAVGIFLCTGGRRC
UniProt Q05655: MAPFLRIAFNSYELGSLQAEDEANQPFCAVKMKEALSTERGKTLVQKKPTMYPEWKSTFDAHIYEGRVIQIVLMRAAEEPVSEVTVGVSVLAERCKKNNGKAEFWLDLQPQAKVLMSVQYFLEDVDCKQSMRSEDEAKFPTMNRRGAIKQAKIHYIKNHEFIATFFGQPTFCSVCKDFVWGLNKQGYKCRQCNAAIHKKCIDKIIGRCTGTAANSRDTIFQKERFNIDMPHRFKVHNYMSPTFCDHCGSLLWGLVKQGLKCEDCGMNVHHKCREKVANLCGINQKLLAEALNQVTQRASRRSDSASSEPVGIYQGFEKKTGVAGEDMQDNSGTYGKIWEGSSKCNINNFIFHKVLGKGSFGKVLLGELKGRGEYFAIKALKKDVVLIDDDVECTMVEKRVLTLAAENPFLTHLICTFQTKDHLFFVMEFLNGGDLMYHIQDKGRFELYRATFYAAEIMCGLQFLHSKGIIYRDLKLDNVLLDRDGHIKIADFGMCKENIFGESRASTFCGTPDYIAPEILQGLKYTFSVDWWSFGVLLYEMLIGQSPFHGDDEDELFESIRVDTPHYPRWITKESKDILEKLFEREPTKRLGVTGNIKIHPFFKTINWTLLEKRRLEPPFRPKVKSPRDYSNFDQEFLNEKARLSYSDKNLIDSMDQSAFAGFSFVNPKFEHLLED

What follows are targets tested with C[C@H](C1=CC=C(C=C1)C(=O)NC2=C3C=CNC3=NC=C2)N (assay: log2 fold change, soluble protein after heating vs DMSO (PISA); higher = thermal stabilisation; K562 cells, 10 uM, 30 min; active = over 0.2 and 3.5 SD of the protein, either way, in both replicates (recomputed)).
Procedure, shortened: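 For each measurement, 10 μM compound was applied for 30 min to K562 cells at 2×10^6 cells/mL. Aliquots were heated for 3 min across 48°C-58°C, pooled, and extracted in PBS with 0.5% NP-40 at 4°C; the supernatant after 21,000xg for 90 min was soluble protein. This was quantified by TMTpro 16plex LC-MS/MS with channel sums equalised, and thermal stability was reported relative to control samples from duplicates, on a log2 fold-change scale.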

log2 fold change, active:
PRKCQ (UniProt Q04759) -0.374, PPP1R12A (UniProt O14974) -0.885

log2 fold change, inactive:
PPP1CA (UniProt P62136) -0.069, PPP1R14B (UniProt Q96C90) -0.002, PRKAG1 isoform 3 (UniProt P54619) -0.023, PPP6R3 isoform 5 (UniProt Q5H9R7) -0.075, PRKAR2B (UniProt P31323) -0.136, PRPSAP1 isoform 2 (UniProt Q14558) -0.011, PPM1G (UniProt O15355) -0.083, PRKCB isoform 2 (UniProt P05771) -0.063, PRMT8 (UniProt Q9NR22) 0.024, PPP2R5C isoform 4 (UniProt Q13362) 0.029, PRKCSH (UniProt K7ELL7) 0.044, PRKAB2 (UniProt O43741) -0.231, PRPF18 (UniProt Q99633) -0.006, PRKCA (UniProt P17252) -0.041, PRKDC (UniProt P78527) -0.074, PPP2R5A (UniProt Q15172) 0.022, PPP1R14A (UniProt Q96A00) 0.003, PRKACA (UniProt P17612) 0.043, PRKAA1 isoform 2 (UniProt Q13131) -0.011, PRMT7 (UniProt Q9NVM4) 0.083, PPP1R35 (UniProt Q8TAP8) -0.037, PRPF4B (UniProt Q13523) -0.089, PRKAR2A (UniProt P13861) -0.159, PRSS2 (UniProt P07478) 0.007, PRKAR1B (UniProt P31321) 0.123, PRADC1 (UniProt Q9BSG0) -0.216, PROCR (UniProt Q9UNN8) -0.145, PRKCD (UniProt Q05655) -0.215, PRKRA (UniProt O75569) 0.555, PPP6R1 (UniProt Q9UPN7) 0.012
